US10544134B2, “4-substituted coumarin derivatives and preparation methods and uses thereof” (SI CHUAN UNIVERSITY, priority 2015, dated 2020)
Some entries share one result that the patent states for a list of compounds.

System: tumor cell strains
Test: Tumor cell proliferation inhibitory activity tests in vitro, summary statements
Assay type: cell-based
Conditions: read-out: IC50 values, anti-tumor activity (tumor cell strains)

Question: With COc1ccc(N(C)c2cc(=O)oc3ccccc23)cc1OC(=O)C1CCCC1 [COUM-73, 4-(N-methyl-N-(4-methoxy-3-(cyclopentyl-carbonyloxy)benzene)-amino) Coumarin] as the compound, how does the IC50 read?
Answer: 0.01 to 10 nM
